No constants are given. Whether binding was seen depends on the method and setting. Binding seen in cells or lysates may run through a third protein. Some binding calls cover weakened binding; strength is not graded here.
Target: JMJD3 (KDM6B) (mouse (endogenous in primary parietal osteoblasts of E18.5 embryos)) (UniProt Q5NCY0)
Experiment: co-IP; endogenous proteins; 5 mg lysate of primary parietal osteoblasts (E18.5 mouse embryos) incubated 2 hours with 3 ug anti-JMJD3 or anti-RUNX2 antibody, then overnight with protein A/G Plus agarose; Western blot with anti-JMJD3 and anti-RUNX2

The chains behind the UniProt entries cited, without tags or fusion partners.
UniProt Q5NCY0: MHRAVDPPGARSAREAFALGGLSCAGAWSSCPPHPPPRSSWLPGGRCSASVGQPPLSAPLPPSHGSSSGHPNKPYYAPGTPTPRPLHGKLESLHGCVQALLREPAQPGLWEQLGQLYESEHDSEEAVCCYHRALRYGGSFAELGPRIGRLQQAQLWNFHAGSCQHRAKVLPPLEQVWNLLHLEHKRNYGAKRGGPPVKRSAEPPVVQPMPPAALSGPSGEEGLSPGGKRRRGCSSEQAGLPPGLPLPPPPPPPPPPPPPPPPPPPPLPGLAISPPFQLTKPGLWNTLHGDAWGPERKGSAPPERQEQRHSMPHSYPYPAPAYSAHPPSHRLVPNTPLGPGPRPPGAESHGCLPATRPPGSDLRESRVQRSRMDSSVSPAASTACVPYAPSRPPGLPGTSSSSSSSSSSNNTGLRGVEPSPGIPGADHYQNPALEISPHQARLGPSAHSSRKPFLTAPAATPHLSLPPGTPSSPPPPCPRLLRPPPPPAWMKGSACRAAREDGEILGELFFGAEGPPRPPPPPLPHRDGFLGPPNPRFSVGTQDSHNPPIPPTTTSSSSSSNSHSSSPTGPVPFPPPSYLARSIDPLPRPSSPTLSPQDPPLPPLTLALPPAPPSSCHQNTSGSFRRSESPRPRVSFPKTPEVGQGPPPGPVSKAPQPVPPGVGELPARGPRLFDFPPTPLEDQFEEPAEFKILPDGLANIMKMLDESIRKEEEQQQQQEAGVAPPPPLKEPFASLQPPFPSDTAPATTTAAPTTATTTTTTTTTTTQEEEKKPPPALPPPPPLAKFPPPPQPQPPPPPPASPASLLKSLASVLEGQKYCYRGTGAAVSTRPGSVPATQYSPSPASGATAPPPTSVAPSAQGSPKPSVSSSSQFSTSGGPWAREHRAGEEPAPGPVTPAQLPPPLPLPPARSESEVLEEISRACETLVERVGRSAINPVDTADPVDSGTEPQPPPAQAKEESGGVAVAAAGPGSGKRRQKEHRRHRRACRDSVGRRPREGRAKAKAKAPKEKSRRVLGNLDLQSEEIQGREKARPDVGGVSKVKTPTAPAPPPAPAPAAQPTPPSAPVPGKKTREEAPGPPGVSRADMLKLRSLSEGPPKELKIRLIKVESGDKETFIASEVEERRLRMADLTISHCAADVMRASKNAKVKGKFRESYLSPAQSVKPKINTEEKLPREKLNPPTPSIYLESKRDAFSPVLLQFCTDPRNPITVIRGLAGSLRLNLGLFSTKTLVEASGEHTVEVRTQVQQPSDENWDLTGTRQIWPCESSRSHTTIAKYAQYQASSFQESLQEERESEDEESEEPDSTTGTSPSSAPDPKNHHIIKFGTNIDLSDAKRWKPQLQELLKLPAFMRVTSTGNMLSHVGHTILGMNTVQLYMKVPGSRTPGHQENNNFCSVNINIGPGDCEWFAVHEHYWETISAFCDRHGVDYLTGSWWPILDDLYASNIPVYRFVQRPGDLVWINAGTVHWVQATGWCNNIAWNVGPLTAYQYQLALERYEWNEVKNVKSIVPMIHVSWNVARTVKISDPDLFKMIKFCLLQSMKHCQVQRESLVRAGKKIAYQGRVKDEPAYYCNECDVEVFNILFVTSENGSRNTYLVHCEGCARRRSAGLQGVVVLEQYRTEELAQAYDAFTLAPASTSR
UniProt Q08775: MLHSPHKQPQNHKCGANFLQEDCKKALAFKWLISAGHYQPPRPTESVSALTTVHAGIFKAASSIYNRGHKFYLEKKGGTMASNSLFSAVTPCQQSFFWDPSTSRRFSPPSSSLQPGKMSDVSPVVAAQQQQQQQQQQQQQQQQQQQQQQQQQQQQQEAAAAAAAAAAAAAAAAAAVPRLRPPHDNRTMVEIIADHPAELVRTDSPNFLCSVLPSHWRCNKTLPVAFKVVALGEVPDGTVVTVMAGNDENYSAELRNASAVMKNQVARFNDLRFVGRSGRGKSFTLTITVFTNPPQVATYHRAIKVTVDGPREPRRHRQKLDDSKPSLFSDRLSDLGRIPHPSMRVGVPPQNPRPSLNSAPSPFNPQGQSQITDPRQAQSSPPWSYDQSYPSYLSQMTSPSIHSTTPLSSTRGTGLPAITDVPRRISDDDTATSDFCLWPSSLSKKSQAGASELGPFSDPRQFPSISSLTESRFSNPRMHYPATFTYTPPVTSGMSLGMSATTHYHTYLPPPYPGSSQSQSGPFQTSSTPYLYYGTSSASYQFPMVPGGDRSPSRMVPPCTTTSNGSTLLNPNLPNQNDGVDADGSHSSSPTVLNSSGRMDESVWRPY

binding: binds
Substance: RUNX2 (from UniProt Q08775 1-607)
